pIC50: −log10 of the molar value. Structures were worked out from names or drawings and are uncertain.
Key:
[1] = tested on: LAPC4 prostate cancer cells; test: Antiproliferative effects in LAPC4 cells (CellTiter Glo); settings: read-out: LAPC4 proliferation IC50, LAPC4 cells (AKT1 E17K allele), 72 h
Procedure: Antiproliferative Effects in LAPC4 Cells.
LAPC4 prostate cancer cells (Klein, K. A. et al. Nat Med 1997, 3, 402-408), which express the AKT1 E17K allele, were grown in IMDM media (Hyclone) supplemented with 12% FBS+1% P/S. To assess compound effects on growth, 1,000 cells/well were seeded in 384 well assay plates, incubated with compound dilutions dissolved in DMSO. After 72 h, intracellular ATP content was assessed with CellTiter Glo reagent (Promega) according to the manufacturer's instructions. IC50 values were calculated by fitting luminescence values to a log(inhibitor) vs. response Hill equation.

By UniProt entry, the sequences of proteins in these tests, tags left out. Where a name states a change or a piece, a line headed by the entry shows the natural chain unless it says otherwise.
UniProt P31749, whole entry: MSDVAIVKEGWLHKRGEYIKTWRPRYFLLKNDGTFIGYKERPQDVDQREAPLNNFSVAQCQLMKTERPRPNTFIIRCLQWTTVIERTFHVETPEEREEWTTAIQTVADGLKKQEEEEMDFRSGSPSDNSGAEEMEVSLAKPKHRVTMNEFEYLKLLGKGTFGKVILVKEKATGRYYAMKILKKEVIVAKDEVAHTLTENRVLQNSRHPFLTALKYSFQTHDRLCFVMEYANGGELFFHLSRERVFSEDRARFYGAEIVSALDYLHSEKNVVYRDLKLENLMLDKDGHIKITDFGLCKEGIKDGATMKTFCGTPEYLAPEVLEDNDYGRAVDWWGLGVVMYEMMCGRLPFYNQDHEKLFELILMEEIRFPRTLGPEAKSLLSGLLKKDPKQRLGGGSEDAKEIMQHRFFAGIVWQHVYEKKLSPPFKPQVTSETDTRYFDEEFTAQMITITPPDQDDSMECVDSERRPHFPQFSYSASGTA
UniProt P31749, whole entry E17K: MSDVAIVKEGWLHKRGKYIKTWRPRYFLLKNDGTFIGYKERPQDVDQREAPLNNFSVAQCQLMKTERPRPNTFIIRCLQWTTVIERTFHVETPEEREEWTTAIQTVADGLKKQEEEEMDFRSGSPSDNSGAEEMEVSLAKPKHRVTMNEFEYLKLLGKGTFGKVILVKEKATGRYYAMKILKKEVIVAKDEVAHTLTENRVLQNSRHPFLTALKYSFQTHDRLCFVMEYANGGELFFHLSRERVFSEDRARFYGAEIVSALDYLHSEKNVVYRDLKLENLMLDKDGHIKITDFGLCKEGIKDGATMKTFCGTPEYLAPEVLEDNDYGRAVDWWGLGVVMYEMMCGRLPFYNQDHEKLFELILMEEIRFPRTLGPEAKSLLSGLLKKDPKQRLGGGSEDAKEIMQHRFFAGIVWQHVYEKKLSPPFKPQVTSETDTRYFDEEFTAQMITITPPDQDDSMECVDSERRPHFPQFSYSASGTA
UniProt P31751, whole entry: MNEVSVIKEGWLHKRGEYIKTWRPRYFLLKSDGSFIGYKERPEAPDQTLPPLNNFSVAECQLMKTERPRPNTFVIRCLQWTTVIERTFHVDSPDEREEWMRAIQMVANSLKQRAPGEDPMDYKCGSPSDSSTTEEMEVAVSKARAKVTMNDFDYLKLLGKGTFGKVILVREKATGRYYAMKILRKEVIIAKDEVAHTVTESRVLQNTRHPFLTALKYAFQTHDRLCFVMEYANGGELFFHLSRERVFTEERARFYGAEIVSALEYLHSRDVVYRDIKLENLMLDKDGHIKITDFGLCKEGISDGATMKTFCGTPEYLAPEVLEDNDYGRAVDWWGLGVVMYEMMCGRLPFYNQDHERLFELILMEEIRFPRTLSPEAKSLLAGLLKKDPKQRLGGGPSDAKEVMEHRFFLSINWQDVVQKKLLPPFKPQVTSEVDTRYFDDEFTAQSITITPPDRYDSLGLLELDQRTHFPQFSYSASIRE

AKT1 E17K = AKT1 E17K (Homo sapiens, UniProt P31749, E17K); test: Live cell AKT1 E17K target engagement by NanoBRET competitive probe displacement; settings: read-out: AKT1 E17K IC50, HEK293 cells transfected with kinase-NanoLuciferase fusion, 2 h at 37° C.
Procedure: (§1) Determining Live Cell AKT1 E17K, AKT1 WT, and AKT2 Target Engagement by NanoBRET Competitive Probe Displacement.
(§2) Live cell target engagement assays were performed as described (Vasta, J. D. et al. Cell Chem Biol 2018, 25(11), 206-214). Briefly, HEK293 cells were transfected with plasmids encoding kinase-NanoLuciferase fusion proteins overnight. Cells were then treated with serial dilutions of compound and an ˜EC50 concentration of fluorescently-tagged ATP-competitive tracer (Promega). After incubation for 2 h at 37° C., luciferase substrate and extracellular luciferase inhibitor were added to all wells, and luminescent intensity at 460 nm and 600 nm were measured on a multimode plate-reader. The ratio of E600/E460 was calculated to give the tracer engagement signal (BRET). IC50 values were calculated by fitting BRET values to a log(inhibitor) vs. response Hill equation.

AKT2 = AKT2 (Homo sapiens, UniProt P31751); test: Live cell AKT2 target engagement by NanoBRET competitive probe displacement; settings: read-out: AKT2 IC50, HEK293 cells transfected with kinase-NanoLuciferase fusion, 2 h at 37° C.
Procedure: as §1, §2

AKT1 WT = AKT1 WT (Homo sapiens, UniProt P31749); test: Live cell AKT1 WT target engagement by NanoBRET competitive probe displacement; settings: read-out: AKT1 WT IC50, HEK293 cells transfected with kinase-NanoLuciferase fusion, 2 h at 37° C.
Procedure: as §1, §2

What does the source list for C=CC(=O)N1CCC(N[C@H]2CCc3cc(-n4c(-c5cccnc5N)nc5ccc(-n6ccc(C(F)F)n6)nc54)ccc32)CC1?
pIC50 [1]: 6.79; pIC50 (AKT1 E17K): 7.78; pIC50 (AKT2): 7.16; pIC50 (AKT1 WT): 6.67

From patent US12570655B2, “Cysteine covalent modifiers of AKT1 and uses thereof” (Terremoto Biosciences, Inc., priority 2023, dated 2026)
